# Results are given in words; binding and its absence hold for the method and conditions named. In cells and extracts the contact can be indirect. Some results given as binding are weak or reduced against the parent protein; the word gives no strength.
# B1: translocase of the inner mitochondrial membrane 13 (protein, UniProt Q9Y5L4 1-95)
# chain: MEGGFGSDFGGSGSGKLDPGLIMEQVKVQIAVANAQELLQRMTDKCFRKCIGKPGGSLDNSEQKCIAMCMDRYMDAWNTVSRAYNSRLQRERANM
# Target: T1, translocase of the inner mitochondrial membrane (TIMM) 8A (human (endogenous in A549)) (UniProt O60220)
# T1 sequence: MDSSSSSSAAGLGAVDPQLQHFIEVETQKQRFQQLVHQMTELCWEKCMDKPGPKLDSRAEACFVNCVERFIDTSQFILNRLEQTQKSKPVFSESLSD
# Experiment: co-IP; endogenous proteins; 8 x 10^6 A549 cells lysed in RIPA buffer with protease inhibitor; antibodies at 4°C overnight; Protein A/G Agarose at 4°C about 4 h; three PBS washes; immunoblot
binder,measurement,value
B1,binding,binds

# From paper PMC12408856
